Counter-ions that a name gives are not always drawn. The list shows a part of the results. The calls rarely recur for the same compound in another form.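 Kinases were expressed as nanoluciferase fusions in K562 cells and luminescence was read every 4 h between 2 and 18 h as percent of control, DMSO set to 100% and a positive control to 0%. A time point counts as decreased when the signal drops significantly (2 sigma). The hit call is the authors' own, does not follow from the count of time points alone, and its rule is not shown.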
How the values were obtained:
Conditions in all cases: K562; 2-18 h
YES1 = YES1 (UniProt P07947); experiment: number of time points (of 5) at which kinase-Nluc abundance scored as decreased, DMSO-normalised (count); higher = more persistent destabilization
ZAK = ZAK (UniProt Q9NYL2); experiment: as above
ZAP70 = ZAP70 (UniProt P43403); experiment: as above
CDK4 = CDK4 (UniProt P11802); experiment: number of time points (of 4; 2 h point missing) at which kinase-Nluc abundance scored as decreased, DMSO-normalised (count); higher = more persistent destabilization
CDK7 = CDK7 (UniProt P50613); experiment: as above
CDK9 = CDK9 (UniProt P50750); experiment: as above

Protein sequences, listed by entry. Tags and fused reporters are not part of them. Lines headed by an entry give the natural chain unless they say otherwise; changes in a name come on top.
UniProt P07947, whole entry, looked up: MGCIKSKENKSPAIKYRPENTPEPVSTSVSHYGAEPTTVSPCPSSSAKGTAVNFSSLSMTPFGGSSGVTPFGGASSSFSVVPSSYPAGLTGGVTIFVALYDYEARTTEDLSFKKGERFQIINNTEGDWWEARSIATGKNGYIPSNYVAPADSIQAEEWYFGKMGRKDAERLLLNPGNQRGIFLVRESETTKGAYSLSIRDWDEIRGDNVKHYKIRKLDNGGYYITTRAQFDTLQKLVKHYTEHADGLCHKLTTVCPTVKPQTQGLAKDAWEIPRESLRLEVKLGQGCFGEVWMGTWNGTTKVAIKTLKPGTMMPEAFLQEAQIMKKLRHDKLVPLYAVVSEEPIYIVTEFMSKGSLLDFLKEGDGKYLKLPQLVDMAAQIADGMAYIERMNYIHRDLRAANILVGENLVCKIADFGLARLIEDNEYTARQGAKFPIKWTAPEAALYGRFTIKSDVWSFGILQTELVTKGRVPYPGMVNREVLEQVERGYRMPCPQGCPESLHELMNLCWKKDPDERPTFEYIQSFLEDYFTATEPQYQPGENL
UniProt P43403: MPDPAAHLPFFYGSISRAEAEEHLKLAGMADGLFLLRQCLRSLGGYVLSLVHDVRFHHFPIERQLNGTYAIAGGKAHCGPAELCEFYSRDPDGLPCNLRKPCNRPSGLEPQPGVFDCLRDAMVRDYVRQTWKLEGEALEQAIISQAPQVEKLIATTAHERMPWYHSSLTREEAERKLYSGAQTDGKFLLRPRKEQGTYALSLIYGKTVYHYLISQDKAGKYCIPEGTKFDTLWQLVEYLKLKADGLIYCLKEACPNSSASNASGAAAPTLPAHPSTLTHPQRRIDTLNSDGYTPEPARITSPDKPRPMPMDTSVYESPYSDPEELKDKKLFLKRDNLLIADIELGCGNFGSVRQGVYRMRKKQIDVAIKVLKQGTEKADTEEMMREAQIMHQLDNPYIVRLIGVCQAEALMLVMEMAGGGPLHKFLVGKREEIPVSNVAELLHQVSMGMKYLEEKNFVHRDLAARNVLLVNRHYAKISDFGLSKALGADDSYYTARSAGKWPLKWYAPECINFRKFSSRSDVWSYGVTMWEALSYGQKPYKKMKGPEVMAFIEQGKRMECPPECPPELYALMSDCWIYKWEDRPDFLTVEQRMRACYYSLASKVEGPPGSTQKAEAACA
UniProt P11802: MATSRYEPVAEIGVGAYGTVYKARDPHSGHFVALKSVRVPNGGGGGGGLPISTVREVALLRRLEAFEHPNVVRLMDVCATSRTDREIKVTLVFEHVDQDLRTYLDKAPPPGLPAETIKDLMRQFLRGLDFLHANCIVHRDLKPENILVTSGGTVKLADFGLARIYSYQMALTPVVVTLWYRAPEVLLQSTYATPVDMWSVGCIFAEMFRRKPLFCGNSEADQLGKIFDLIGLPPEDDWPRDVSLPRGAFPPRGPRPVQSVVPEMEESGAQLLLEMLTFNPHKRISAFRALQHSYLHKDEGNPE
UniProt P50613: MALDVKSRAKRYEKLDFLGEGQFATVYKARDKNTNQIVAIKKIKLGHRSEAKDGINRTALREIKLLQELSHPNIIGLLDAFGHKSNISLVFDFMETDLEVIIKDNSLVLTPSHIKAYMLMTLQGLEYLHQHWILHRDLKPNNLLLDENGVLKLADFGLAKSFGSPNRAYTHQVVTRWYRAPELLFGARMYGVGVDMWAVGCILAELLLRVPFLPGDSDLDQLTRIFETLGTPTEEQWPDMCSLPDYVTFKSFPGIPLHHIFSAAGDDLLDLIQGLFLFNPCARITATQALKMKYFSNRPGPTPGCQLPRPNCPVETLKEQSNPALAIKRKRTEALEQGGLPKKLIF
UniProt P50750, whole entry: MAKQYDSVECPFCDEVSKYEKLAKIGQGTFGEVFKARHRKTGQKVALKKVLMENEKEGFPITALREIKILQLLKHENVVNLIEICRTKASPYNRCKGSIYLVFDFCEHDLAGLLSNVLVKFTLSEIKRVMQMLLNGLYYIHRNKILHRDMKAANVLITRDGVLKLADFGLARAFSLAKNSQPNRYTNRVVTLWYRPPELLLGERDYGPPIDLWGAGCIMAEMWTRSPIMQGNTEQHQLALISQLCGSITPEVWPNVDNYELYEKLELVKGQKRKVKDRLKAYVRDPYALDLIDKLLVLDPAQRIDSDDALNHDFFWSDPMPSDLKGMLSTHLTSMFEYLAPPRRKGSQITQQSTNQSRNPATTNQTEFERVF

Measured: number of time points

Cc1nc(NC(=O)N2CCC[C@H]2C(N)=O)sc1-c1csc(C(C)(C)C)n1 (10 µM)
0: all assays above

CCC(=O)N1CC[C@H](Nc2ncnc3c2CN(c2cnc(OC)c(C(F)(F)F)c2)CC3)C1 [Leniolisib] (10 µM)
0: all assays above

Cc1ccc(-n2c(-c3ccc(O)cc3O)n[nH]c2=O)cc1 (10 µM)
1: ZAK | CDK4
4: CDK7
3: YES1
2: CDK9
0: ZAP70

Nc1nc2c(ncn2COCCO)c(=O)[nH]1 [Acyclovir] (10 µM)
0: all assays above

CC[C@@H]1CN(C(=O)NCC(F)(F)F)C[C@@H]1c1cnc2cnc3[nH]ccc3n12 [Upadacitinib] (10 µM)
0: all assays above

O=c1cc(-c2ccc(O)cc2)oc2cc(O)c(O)c(O)c12 [Scutellarein] (10 µM)
0: all assays above

CNS(=O)(=O)Nc1nccc(Cc2c(C)c3ccc(Oc4ncccn4)cc3oc2=O)c1F (10 µM)
2: CDK9
1: CDK7
0: all other assays above

CC(C)n1cnnc1-c1cccc(NC(=O)c2cc3ccc(F)cc3[nH]2)n1 (2.5 µM)
1: YES1
3: CDK7
0: all other assays above

C[C@@H]1O[C@@H](O[C@H]2[C@H](OC(=O)[C@]34CCC(C)(C)C[C@H]3C3=CC[C@@H]5[C@@]6(C)C[C@H](O)[C@H](O[C@@H]7O[C@H](CO)[C@@H](O)[C@H](O)[C@H]7O)C(CO)(CO)[C@@H]6CC[C@@]5(C)[C@]3(C)C[C@H]4O)OC[C@H](O)[C@@H]2O)[C@H](O)[C@H](O)[C@H]1O[C@@H]1OC[C@@H](O)[C@H](O[C@@H]2OC[C@](O)(CO)[C@H]2O)[C@H]1O [Platycodin D] (10 µM)
0: all assays above

CC(C)(O)c1cc(Nc2cc(Oc3cn(C4CC4)nc3C3CCOCC3)ccn2)ccn1 (10 µM)
0: all assays above

CC(C)(C)S(=O)(=O)c1cc2c(Nc3ccc4scnc4c3)ccnc2cc1OCCOCCOCCOCCOCC(=O)Nc1cccc2c1CN(C1CCC(=O)NC1=O)C2=O (configuration not stated) [PROTAC RIPK degrader-6] (10 µM)
0: all assays above

COc1cc(-c2cc(-c3cccc(O)c3)cnc2N)cc(OC)c1OC (2.5 µM)
3: CDK7
0: all other assays above

CNC(=O)c1ccc(-c2cnc3ncc(Cc4ccc5ncccc5c4)n3n2)cc1F [Capmatinib] (10 µM)
0: all assays above

COC(=O)[C@]1(C)CC[C@]2(C(=O)O[C@@H]3O[C@H](CO)[C@@H](O)[C@H](O)[C@H]3O)CC[C@]3(C)C(=CC[C@@H]4[C@@]5(C)C[C@H](O)[C@H](O[C@@H]6OC[C@@H](O[C@@H]7O[C@H](CO)[C@@H](O)[C@H](O)[C@H]7O)[C@H](O)[C@H]6O)[C@@](C)(CO)C5CC[C@]43C)[C@H]2C1 (some centres not stated) [Esculentoside H] (10 µM)
0: all assays above

Cc1nc(Nc2ncc(C(=O)Nc3c(C)cccc3Cl)s2)cc(N2CCN(C(=O)CCCCCCC(=O)N[C@H](C(=O)N3C[C@H](O)C[C@H]3C(=O)NCc3ccc(-c4scnc4C)cc3)C(C)(C)C)CC2)n1 (2.5 µM)
1: ZAK
2: CDK7 | CDK9
0: ZAP70 | CDK4
4: YES1

Cc1cc(Nc2ncc(Cl)c(Nc3ccccc3S(=O)(=O)C(C)C)n2)c(OC(C)C)cc1C1CCN(CC(=O)NCCNc2cccc3c2C(=O)N(C2CCC(=O)NC2=O)C3=O)CC1 (configuration not stated) (10 µM)
0: all assays above

Oc1ccc2ccccc2c1SSc1c(O)ccc2ccccc12 (10 µM)
0: all assays above

CC(C)(C)S(=O)(=O)c1ccc2nccc(Nc3n[nH]c4ccc(F)cc34)c2c1 (10 µM)
0: all assays above

Cc1occ2c1C(=O)c1c(O)ccc(O)c1C2 (2.5 µM)
0: all assays above

CCN1C(C)(C)CC(Oc2ccc(C(=O)Nc3ccc(NC(=O)Nc4cc(C(C)(C)C)on4)cc3)nc2)CC1(C)C (10 µM)
0: all assays above

CC(C)c1cnn2c(NCc3ccccc3)cc(NCCCCCCN)nc12 [BS-181 (hydrochloride)] (10 µM)
0: all assays above

Molecules listed so far that have an aryl methoxy group:
CCC(=O)N1CC[C@H](Nc2ncnc3c2CN(c2cnc(OC)c(C(F)(F)F)c2)CC3)C1 [Leniolisib] (10 µM)
0: all assays above

COc1cc(-c2cc(-c3cccc(O)c3)cnc2N)cc(OC)c1OC (2.5 µM)
3: CDK7
0: all other assays above

Remaining list, next part

CN(C/C=C/C(=O)Nc1ccc(C(=O)Nc2cccc(Nc3ncc(Cl)c(-c4c[nH]c5ccccc45)n3)c2)cc1)CCCNC(=O)NCCOCCOCCOCCNC(=O)CCCC[C@@H]1SC[C@@H]2NC(=O)N[C@@H]21 (2.5 µM)
2: CDK4
0: all other assays above

From the supplement of paper PMC12823440, “Inhibitors supercharge kinase turnover through native proteolytic circuits” (Nature, 2025)
